The nature of the series: general procedure: Fmoc solid-phase peptide synthesis; TentaGel resin with Rink amide spacer, 0.24 mmol/g. To be noted: whole synthesis; for final purity (method not given): HPLC.

Some peptides are written in HELM: one residue between dots, names in brackets for other building blocks, links after the first $.

The record followed here is patent publication EP4786486A1 (Universidad Complutense De Madrid, priority 2023, dated 2025).

With “PEPTIDE1{[Pal].F.T.R.E.S.L.A.A.I.E.K.[am]}$$$$V2.0”, the isolated yield stood at 16% and the “final purity (method not given)” value was found to be 99%.
For “PEPTIDE1{[Pal].R.F.T.R.E.S.L.A.A.I.E.K.[am]}$$$$V2.0” the same measures were 25% and 98%.
As to “PEPTIDE1{[Pal].R.F.T.R.E.S.L.A.A.I.E.K.[am]}|CHEM1{[FTC]}$PEPTIDE1,CHEM1,13:R3-1:R2$$$V2.0”, the isolated yield was 18% and the “final purity (method not given)” value was 96%.
For “PEPTIDE1{[ac].F.T.R.E.S.L.A.A.I.E.K.R.[am]}$$$$V2.0” the same measures were 29% and 99%.
With “PEPTIDE1{[ac].F.T.R.E.S.L.A.A.I.E.K.[am]}$$$$V2.0”, the isolated yield is 21% and the “final purity (method not given)” value amounted to 100%.
Regarding “PEPTIDE1{[ac].R.F.T.R.E.S.L.A.A.I.E.K.[am]}|CHEM1{[FTC]}$PEPTIDE1,CHEM1,13:R3-1:R2$$$V2.0”, the isolated yield was 18% and the “final purity (method not given)” value is recorded as 95%.
For “PEPTIDE1{[ac].R.F.T.R.E.S.L.A.A.I.E.[am]}$$$$V2.0” the same measures were 55% and 98%.
For Pal-RFTRESLAAIE-NH2 the same measures were 13% and 97%.
